PubChem BioAssay AID2685 (National Center for Advancing Translational Sciences (NCATS), 2010)
Some of the results follow. Further columns of the screen follow, without active or inactive calls. The list favours compounds with an active or inconclusive main result. Potencies come from curve fits of mixed quality, noted in brackets.

Assay: qHTS Assay for Lipid Storage Modulators in Drosophila S3 Cells;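 as to cell number change: cells counted by Cell Tracker Red CMTPX staining in the red channel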
Details: BODIPY lipid droplet fluorescence, 18-24 h; for cell number change: measured here: cell count max response, cells fed with added oleic acid
Summary of the method: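 Laser-scanning cytometry quantifies lipid droplet accumulation (500–530 nm total intensity; droplet/cell object ratio) in oleic acid-fed (400 uM added) Drosophila S3 cells treated with a concentration series. 20 uM Triacsin C defined 100% inhibition.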

[1] = measured here: lipid fluorescence (Fed channel) AC50, cells fed with added oleic acid
[2] = measured here: cell number channel AC50, cells fed with added oleic acid

SMILES	AC50 [1]	cell number change [%]	AC50 [2]
CC(C)(C)OC(=O)N1CC=C2C(C#N)=C(N)C(C#N)(C#N)[C@H](c3cccnc3)[C@H]2C1	0.164 µM [rising, full curve, poor fit]		
O=C(O)CCC(=O)NNC(=O)CCCOc1ccc(Cl)cc1Cl	3.66 µM [falling, partial curve]	-9.27	1.3 µM [falling, single point]
CSc1nnc(C2CCN(CC(=O)Nc3ccccc3N3CCOCC3)CC2)n1C	0.116 µM [rising, single point]	-10.3	
CCOc1cc2nc3c4ccccc4n(C)c3nc2cc1OCC	0.291 µM [rising, partial curve, poor fit]	17.2	
Cc1c(-c2cccs2)[n+](=O)c2c(n1[O-])CCCCC2	23.1 µM [rising, single point]	0.0324	
CN(C(=O)CSc1ncnc2sccc12)C1CCCCC1		3.38	
Cc1oc(C(C)(C)C)cc1C(=O)NCC(=O)NCC(=O)O		87.8	29.1 µM [rising, single point]
COc1ccc(CCNC(=O)Cc2ccc3c(c2)OCO3)cc1OC		33.5	32.6 µM [rising, single point]
O=C1c2ccccc2C(=O)N1c1ccc(Cl)cn1	10.3 µM [falling, partial curve]	-55.7	3.26 µM [falling, full curve]
CCOc1ccc(N2CC(C(=O)Nc3cccc(C)c3C)CC2=O)cc1 (centres undefined)	1.84 µM [rising, single point]		0.259 µM [rising, partial curve, poor fit]
COc1ccc(C(=O)COC(=O)CN2C(=O)NC3(CC(C)CC(C)(C)C3)C2=O)c(OC)c1 (centres undefined)	0.206 µM [falling, full curve]	-36.4	0.326 µM [falling, full curve, poor fit]
CCOC(=O)c1ccc2c(c1)nc(COc1ccc3ccccc3c1)n2CC	1.64 µM [rising, partial curve]		0.58 µM [rising, single point]
COc1ccc(CNc2ccc(C)c(C)c2)cc1	32.6 µM [falling, single point]	-18.9	
C=CCn1c(-c2cc(Cl)ccc2OC)n[nH]c1=S	1.46 µM [rising, partial curve]	58.8	9.2 µM [rising, partial curve]
O=C(NN1CCN(Cc2ccccc2Cl)CC1)c1ccc(Cl)cc1	3.66 µM [rising, single point]	23.4	
Cc1ccccc1C(=O)N1CCC(C(=O)Nc2ccccc2Cl)CC1		12	
COc1ccc(CN2CCC(Cc3ccccc3)CC2)c(C)c1C		16.8	
CSc1cccc(NC(=S)N(CCN(C)C)C(C)c2ccccn2)c1 (centres undefined)	18.4 µM [rising, single point]	54.9	23.1 µM [rising, single point]
O=C(Cn1cnc(Cl)c1Cl)c1ccc(F)cc1	29.1 µM [falling, single point]	-70.6	29.1 µM [falling, single point]
CCOc1ccc(CN2CCCN(C)CC2)cc1	3.66 µM [falling, single point]	-17.7	0.291 µM [falling, full curve, poor fit]

SMILES	AC50 [1]	cell number change [%]	AC50 [2]
CCCNc1c(NS(=O)(=O)c2ccc(C(C)(C)C)cc2)c(=O)oc2ccccc12	0.0517 µM [rising, full curve]	22.1	
Cc1ccc(S(=O)(=O)NC(=O)c2ccc(Br)o2)c(C)c1	14.6 µM [rising, single point]	21.9	
COc1cc(NC(=O)c2ccco2)c(OC)cc1NC(=O)Nc1cccc(Cl)c1	3.66 µM [falling, full curve, poor fit]	-1.53	
CCOC(=O)c1[nH]c(C)c(C(=O)N2CCN(c3ccccc3)CC2)c1C	20.6 µM [rising, single point]	-14.1	
Cc1cccc(Oc2cc([N+](=O)[O-])cc3c2C(=O)Nc2ccccc2O3)c1	4.61 µM [rising, partial curve]	30.4	6.51 µM [rising, partial curve]
CCCCN(CC)C(=O)Cc1cn(C)c2ccccc12	29.1 µM [rising, single point]	4.37	
Cc1cc(Br)ccc1NC(=O)CN1CCN(c2ccccn2)CC1		-14.6	0.164 µM [falling, full curve, poor fit]
C/[N+]([O-])=C/c1c(OCc2ccccc2)ccc2ccccc12	1.03 µM [rising, full curve, poor fit]	22.7	
O=C(Nc1ccccc1F)C1CCN(S(=O)(=O)c2cccc3nonc23)CC1		-55.9	29.1 µM [falling, single point]
CC(C)C[C@H](NC(=O)N1CCn2c1nc1ccccc12)C(=O)NC1CC1	29.1 µM [falling, single point]	-15.7	
CCCCOC(=O)c1ccc(NC(=O)CSc2nncn2C)cc1		-15.3	
CC(C)(C)c1nc(SCC(=O)Nc2ccc(N3CCOCC3)cc2)c2ccccc2n1	29.1 µM [falling, single point]	-63.6	2.59 µM [falling, partial curve, poor fit]
COC(=O)c1cc(=O)c2c([N+](=O)[O-])ccc(OC)c2o1	1.84 µM [rising, partial curve, poor fit]	12.9	
CCOc1ccc(NC(=O)c2cccnc2Cl)c([N+](=O)[O-])c1	29.1 µM [rising, single point]		
NC(=O)N1OCC2COc3ccc4ccccc4c3C21 (centres undefined)	6.51 µM [falling, single point]	3.93	
CC(C)(C)C(=O)CSc1nc2ccccc2o1		5.42	
Cc1ccc(CNC(=O)c2ccc(OCC3CCCO3)cc2)cc1 (centres undefined)			2.91 µM [rising, single point]
O=C(CCCNC(=O)c1ccc(Cl)cc1)Nc1ncccc1O	16.4 µM [rising, single point]	-7.8	
Cc1ccc(C(=O)COC(=O)CCC(=O)Nc2ccccc2Cl)cc1[N+](=O)[O-]	0.651 µM [falling, partial curve]	-3.36	0.517 µM [falling, partial curve, poor fit]
NC1=NC(c2ccc(Br)cc2)n2c(nc3ccccc32)N1 (centres undefined)			0.13 µM [falling, full curve, poor fit]

4 records drawn at random from the list so far:
SMILES	AC50 [1]	cell number change [%]	AC50 [2]
CCCCN(CC)C(=O)Cc1cn(C)c2ccccc12	29.1 µM [rising, single point]	4.37	
COc1cc(NC(=O)c2ccco2)c(OC)cc1NC(=O)Nc1cccc(Cl)c1	3.66 µM [falling, full curve, poor fit]	-1.53	
CCOc1ccc(NC(=O)c2cccnc2Cl)c([N+](=O)[O-])c1	29.1 µM [rising, single point]		
CCCNc1c(NS(=O)(=O)c2ccc(C(C)(C)C)cc2)c(=O)oc2ccccc12	0.0517 µM [rising, full curve]	22.1	

The results go on.

SMILES	AC50 [1]	cell number change [%]	AC50 [2]
COCCn1c(Cc2cccn2C)nnc1SCC(=O)Nc1nccs1	6.51 µM [rising, single point]	-13	
C=CCOC(=O)Nc1c(C(=O)OC)[nH]c2ccc(Cl)cc12		8.62	0.259 µM [rising, full curve, poor fit]
Cc1[nH]c(=O)[nH]c(=O)c1CSc1nnc(CCCCCNC(=O)OC(C)(C)C)o1	7.31 µM [falling, partial curve]	5.37	
Cc1ccc2occ(/C=N/NC(=O)c3ccc(O)cc3)c(=O)c2c1	29.1 µM [falling, single point]		
COc1ccc(NC(=O)C2CCC(C(C)(C)C)CC2)cc1S(=O)(=O)N1CCOCC1 (centres undefined)	2.06 µM [rising, partial curve, poor fit]	-10.8	
CCn1c(SCC(=O)Nc2nc(C)cs2)nnc1-c1cccnc1			0.231 µM [rising, full curve, poor fit]
COC(CNC(=O)C1CCN(C(=O)c2cc3oc(C)cc3n2Cc2c(F)cccc2Cl)CC1)OC		-14.1	4.61 µM [falling, single point]
O=C1CC(c2ccco2)CC2=C1C=Nc1ccccc1N2 (centres undefined)		-11.9	
c1ccc(N2CCN(c3nc(-c4cccs4)nc4ccccc34)CC2)cc1	2.31 µM [falling, partial curve, poor fit]	60.3	16.4 µM [rising, single point]
CS(=O)(=O)N(CC(=O)N1CCN(c2ccc(F)cc2)CC1)C1CCCCC1	0.461 µM [rising, partial curve, poor fit]		0.291 µM [rising, full curve, poor fit]
COc1ccc(NC(=O)c2ccc(-c3ccccc3Cl)o2)cc1	10.3 µM [rising, partial curve]	0.813	
O=C(COC(=O)c1ccccc1)c1ccc2c(c1)OCCO2		-50	25.9 µM [falling, single point]
CCC(=O)Nc1c2c(nn1-c1ccc(C)cc1C)CSC2	1.84 µM [falling, partial curve]	-32.4	1.3 µM [falling, full curve, poor fit]
CC(C)N(C(=O)COC(=O)CNS(=O)(=O)c1ccccc1F)c1ccccc1		-41.7	
COc1ccc(-c2nnn(CC(=O)NC3CCCc4ccccc43)n2)cc1OC (centres undefined)		-12.9	
COc1ccc(-c2noc(N3CCC(C(=O)Nc4ccccc4F)CC3)n2)cc1	6.51 µM [rising, partial curve, poor fit]	4.61	
CC(=O)OC[C@H]1O[C@@H](O/N=C/C[C@@H]2C=C[C@H](OC(C)=O)[C@@H](COC(C)=O)O2)[C@H](OC(C)=O)[C@@H](OC(C)=O)[C@@H]1OC(C)=O	29.1 µM [rising, single point]	3.68	
COc1cccc(C(=O)Nc2cccc(C(C)=O)c2)c1	2.06 µM [rising, partial curve]	-4.55	
